# Experimental data taken from patent US10233201B2, “Class of HDAC inhibitors expands the renal progenitor cells population and improves the rate of recovery from acute kidney injury” (University of Pittsburgh—Of the Commonwealth System of …, priority 2012, dated 2019).
# The name of at least one read-out is uncertain.
# Test system: renal progenitor cells (lhx1a expression)
# Assay: In situ hybridization for lhx1a expression in 10-somite embryos (renal progenitor cell expansion)
# Type: in vivo
# Details: 200 nM
# Protocol: PTBA was synthesized as described below. Hydroxyurea and aphidicolin were obtained from Sigma-Aldrich.
# In situ hybridization and immunocytochemistry: In situ hybridization was performed as previously described with some modifications. 142 Hybridization temperature was 65° C. Embryos were blocked in 2% blocking reagent (Roche) with 5% sheep serum in MAB (100 mM maleic acid and 150 mM NaCl [pH 7.5]). Whole-mount immunocytochemistry with 1:25 mouse anti-α6F antibody (Developmental Studies Hybridoma Bank) and 1:100 Cy3 secondary antibody (Jackson ImmunoResearch) was performed as described previously. 108 Embryos were embedded in JB-4 for sectioning per the manufacturer's instructions (Polysciences), sectioned at 5 μm, and mounted with Cytoseal 60 (Richard-Allan Scientific).
# The remaining PTBA analogs were synthesized. […]
# Testing of the compounds is on-going, but for those tested, Table 3 provides first pass EC50s based upon colormetric in situ hybridizations for the Lhx1a mRNA expression levels. After the procedure is run, in situ hybridization is done for the lhx1 mRNA expression and the number of embryos that show an expanded kidney field is manually counted to establish the percent of embryos showing expansion. Then the EC50 is determined by plotting the percent expansion in Excel, graphing the results and using the trendline function to determine the 50 percent point. […]
compound,measurement,value
COC(=O)CCCSc1ccc(F)cc1 [methyl 4-[(4-fluorophenyl)thio]butanoate],embryos with expanded lhx1a expression (% expansion),26%
